Reference: paper PMC9534967
No constants are given. Whether binding was seen depends on the method and setting. In cells and extracts the contact can be indirect. Some results given as binding are weak or reduced against the parent protein; the word gives no strength.

Sequences of proteins named here, by UniProt entry; tags and fusion partners are left off.
UniProt O14727: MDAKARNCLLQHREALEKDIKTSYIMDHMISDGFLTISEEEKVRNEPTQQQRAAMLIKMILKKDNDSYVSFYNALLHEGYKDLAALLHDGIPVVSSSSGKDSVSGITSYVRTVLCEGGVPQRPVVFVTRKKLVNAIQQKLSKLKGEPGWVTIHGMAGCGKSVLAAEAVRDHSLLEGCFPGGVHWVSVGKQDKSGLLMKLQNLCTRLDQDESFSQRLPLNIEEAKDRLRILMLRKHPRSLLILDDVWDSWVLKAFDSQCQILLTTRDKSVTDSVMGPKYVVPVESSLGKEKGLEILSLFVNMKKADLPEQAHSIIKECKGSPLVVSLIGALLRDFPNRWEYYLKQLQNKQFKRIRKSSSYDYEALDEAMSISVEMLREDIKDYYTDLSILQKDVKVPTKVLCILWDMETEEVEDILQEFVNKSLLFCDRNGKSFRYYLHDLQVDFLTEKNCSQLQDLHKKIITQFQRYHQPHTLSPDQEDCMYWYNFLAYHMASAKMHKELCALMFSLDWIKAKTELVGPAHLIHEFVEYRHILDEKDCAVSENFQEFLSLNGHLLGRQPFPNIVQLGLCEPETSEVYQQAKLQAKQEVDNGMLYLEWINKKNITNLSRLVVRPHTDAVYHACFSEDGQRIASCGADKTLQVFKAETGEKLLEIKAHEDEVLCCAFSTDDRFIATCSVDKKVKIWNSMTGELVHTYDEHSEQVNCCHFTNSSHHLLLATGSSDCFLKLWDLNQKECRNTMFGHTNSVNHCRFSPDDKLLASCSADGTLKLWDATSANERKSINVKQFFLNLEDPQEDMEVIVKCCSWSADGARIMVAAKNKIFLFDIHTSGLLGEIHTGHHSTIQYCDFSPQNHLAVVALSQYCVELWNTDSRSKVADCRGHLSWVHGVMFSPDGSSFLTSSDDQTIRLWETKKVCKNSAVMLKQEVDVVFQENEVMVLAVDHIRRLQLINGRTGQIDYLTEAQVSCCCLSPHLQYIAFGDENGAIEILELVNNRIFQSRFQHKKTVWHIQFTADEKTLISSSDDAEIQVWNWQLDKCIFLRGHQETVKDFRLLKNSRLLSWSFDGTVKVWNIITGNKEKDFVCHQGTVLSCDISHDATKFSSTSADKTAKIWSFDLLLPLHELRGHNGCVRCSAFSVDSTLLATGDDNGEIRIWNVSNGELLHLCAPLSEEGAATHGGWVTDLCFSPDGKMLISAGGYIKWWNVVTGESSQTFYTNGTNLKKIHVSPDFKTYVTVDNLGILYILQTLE
UniProt P99999: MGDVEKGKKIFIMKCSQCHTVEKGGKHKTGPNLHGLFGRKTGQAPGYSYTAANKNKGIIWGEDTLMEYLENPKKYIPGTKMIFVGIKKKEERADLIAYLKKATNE

Target: apoptotic protease-activating factor 1 (APAF1) (human (endogenous in BGC823)) (UniProt O14727)
Experiment: co-IP; endogenous proteins in BGC823 cells after DDP at 0 or 1 µg/mL for 24 h; cells with ABL overexpression, or IGF2BP1 or METTL3 deficiency; which protein was precipitated not given

binding: binds
Substance: cytochrome c (Cyt c) (from UniProt P99999 1-105)
